Experimental findings from article PMC3362779 are described below.

In test [1] the target is T1, epithelial sodium channel gamma subunit (γ-ENaC) (rat (endogenous in ATII cells)) (UniProt P37091).
T1 sequence: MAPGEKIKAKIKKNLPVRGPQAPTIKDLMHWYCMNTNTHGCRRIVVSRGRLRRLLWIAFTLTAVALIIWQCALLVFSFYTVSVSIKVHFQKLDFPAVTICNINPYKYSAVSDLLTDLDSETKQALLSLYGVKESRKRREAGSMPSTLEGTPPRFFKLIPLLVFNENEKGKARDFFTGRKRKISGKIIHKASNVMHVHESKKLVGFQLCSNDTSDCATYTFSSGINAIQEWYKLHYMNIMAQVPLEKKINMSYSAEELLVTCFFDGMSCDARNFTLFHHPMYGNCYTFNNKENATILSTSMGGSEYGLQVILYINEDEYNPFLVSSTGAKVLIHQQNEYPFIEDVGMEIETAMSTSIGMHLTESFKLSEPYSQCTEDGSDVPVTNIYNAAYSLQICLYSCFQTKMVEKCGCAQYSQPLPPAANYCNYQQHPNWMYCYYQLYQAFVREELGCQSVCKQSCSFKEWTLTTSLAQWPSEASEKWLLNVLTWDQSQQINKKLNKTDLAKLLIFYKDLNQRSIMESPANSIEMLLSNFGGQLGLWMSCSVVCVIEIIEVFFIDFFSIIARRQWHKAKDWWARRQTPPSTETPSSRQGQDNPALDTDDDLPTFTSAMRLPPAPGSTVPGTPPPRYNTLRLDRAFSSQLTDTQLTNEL
As to the kind of experiment: co-IP; 500 μg total protein of ATII cell lysate immunoprecipitated with anti-α-, β- or γ-ENaC antibodies at 4°C overnight, protein A/G-agarose 4 h at 4°C, four washes with lysis buffer, western blot for Nedd4-2; basal conditions, and cells treated with insulin (200 mU/L, 2 h) with or without LY294002 (10 μM) or Akt inhibitor (100 nM): co-precipitated Nedd4-2 decreased by insulin, the decrease blocked by the inhibitors.

In test [2] the target is T2, epithelial sodium channel alpha subunit (α-ENaC) (rat (endogenous in ATII cells)) (UniProt P37089).
T2 sequence: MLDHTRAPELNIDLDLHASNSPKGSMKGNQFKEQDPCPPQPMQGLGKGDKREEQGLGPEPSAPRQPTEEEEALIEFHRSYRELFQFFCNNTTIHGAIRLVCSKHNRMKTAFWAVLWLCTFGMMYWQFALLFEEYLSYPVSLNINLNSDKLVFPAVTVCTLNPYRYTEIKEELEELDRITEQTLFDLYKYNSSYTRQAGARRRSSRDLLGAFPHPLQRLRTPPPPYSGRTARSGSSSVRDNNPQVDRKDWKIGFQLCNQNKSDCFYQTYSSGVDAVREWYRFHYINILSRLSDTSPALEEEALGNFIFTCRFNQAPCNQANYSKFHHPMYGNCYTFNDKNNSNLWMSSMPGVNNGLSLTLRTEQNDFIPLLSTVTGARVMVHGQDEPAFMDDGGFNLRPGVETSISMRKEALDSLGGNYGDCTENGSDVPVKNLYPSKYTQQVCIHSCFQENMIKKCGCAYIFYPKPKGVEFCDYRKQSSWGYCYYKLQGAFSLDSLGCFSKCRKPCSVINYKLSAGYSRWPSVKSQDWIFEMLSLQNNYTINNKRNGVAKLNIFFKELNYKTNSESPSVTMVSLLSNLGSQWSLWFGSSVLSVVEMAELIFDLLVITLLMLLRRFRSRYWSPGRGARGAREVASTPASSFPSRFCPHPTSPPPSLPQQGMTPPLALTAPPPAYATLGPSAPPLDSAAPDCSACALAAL
The test is described as above.

These are yes or no findings as the source states them, for the method shown. Binding seen in cells or lysates may run through a third protein. Binding calls can cover weak binding; strength is not graded here.

As to “Nedd4-2 (neuronal expressed developmentally downregulated 4-2) (rat (endogenous in ATII cells))”, the binding entry in test [1] and in test [2] was “binds” each time.
